Primary screen of a compound library

From ChEMBL document CHEMBL3988442, “University of Dundee, Small-Polar-MMV Screening Library” (2021).

A: 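Phenotypic screen: M. tuberculosis growth, cholesterol and DPPC medium, 4 days; the read-out is not stated. Tested at 50 µM. The record gives no direction; compounds that gave an IC50 in retests scored well above the rest, so higher reads as more growth inhibition. Of about 69,000 compounds tested this way, about 370 (0.54%) reached 50% or more in at least one test.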
B: 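Whole-cell growth test on Mycobacterium tuberculosis, read after 3 days in glucose-containing 7H9 medium; the read-out is not stated. Compounds at 50 µM. The record gives no direction; compounds that gave an IC50 in retests scored well above the rest, so higher reads as more growth inhibition. Size under these conditions: about 69,000 compounds, about 760 of them at 50% or above in at least one test.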

Results are given as percent effect.
How 0% and 100% were set is not recorded. Most values in the screen are low, and negative values occur.
This is an unselected part of the compounds tested.
Two or more numbers in one place are separate tests of the same structure; such repeats can differ widely.

| # | structure | A | B |
|---|---|---|---|
| 1 | `CNc1cncc(C2CCCN2S(=O)(=O)c2ccccc2)n1` (configuration not stated) | -34.89 | -3.527 |
| 2 | `Cc1nccn1-c1cccc(C2CCCN2)n1.Cl` (configuration not stated) | 8.484 | 0.1649 |
| 3 | `CC(C)c1nccc(CN2CCC(c3nc4ccccc4n3C)CC2)n1` | -11.37 | -7.71 |
| 4 | `Br.Cc1ncc(C(=O)N2CCOC(C(=O)N3CCCCCC3)C2)c(C)n1` (configuration not stated) | -7.898 & -6.286 | -1.185 |
| 5 | `[H][C@@]12CCN(CC3CC3)C[C@]1([H])OCCN(c1ccsc1)C2=O` | 3.666 | -10.11 & -10.18 |
| 6 | `CCCN(CCC)S(=O)(=O)NCCc1cc(C)ccc1OC` | -2.846 | 27.11 |
| 7 | `COCCN1CCC(CN(C)c2ncnc3c2c(C)nn3C)C1` (configuration not stated) | -13.18 | -10.26 |
| 8 | `Cc1nc(CN2CCN(C(=O)CCC(=O)c3ccccc3)CC2)no1` | -9.701 | -1.772 & -42.72 |
| 9 | `Cc1n[nH]c(C)c1CC(=O)NCc1ccccc1Cl` | -15.28 | 10.18 |
| 10 | `CCc1cnccc1C(=O)NC1CCN(C(=O)OC)CC1` | -0.5309 | -16.14 |
| 11 | `CC(C)CC(=O)Nc1ccc2c(c1)ncn2CC(=O)NCCN(C)C` | -3.067 | 19.93 |
| 12 | `COCC1COCCC12CCN(Cc1cccs1)CC2.O=C(O)C(F)(F)F` (configuration not stated) | 18.48 | -12.23 |
| 13 | `OCCN1CCCC(c2nccnc2Oc2ccc(F)cc2)C1` (configuration not stated) | -9.414 | 24.9 |
| 14 | `Cn1c(C(=O)Nc2nc[nH]n2)cc2ccccc21` | -11.38 | -15.3 |
| 15 | `c1cc(C2CCN(Cc3nc(-c4ccsc4)no3)CC2)[nH]n1` | 9.007 & -1.261 | 27.37 |
| 16 | `CC(C)n1[nH]c(=O)c2c1NC(=O)CC2c1cccc(O)c1` (configuration not stated) | -28.39 | -19.23 |
| 17 | `Cc1cc(-c2nnn(CCC(N)=O)n2)ccc1F` | -5.467 | 6.381 |
| 18 | `CC[C@@H](CO)Nc1nccc(-c2c[nH]c3cc(C(=O)OC)ccc23)n1` | -19.29 | 25.9 |
| 19 | `O=C(NC1CCN(c2ccc(-c3ccccc3F)nn2)C1)c1cc[nH]n1` (configuration not stated) | 5.128 | 8.165 & 35.92 |
| 20 | `Cc1ccc(S(=O)(=O)Nc2cccnc2O)cc1C` | 7.457 & -8.671 | 1.159 |
| 21 | `Cc1ccc2[nH]c(CNC(=O)C3CC4(CCNCC4)CN3C)nc2c1C` (configuration not stated) | -0.4055 | 16.25 |
| 22 | `CN1CC(=O)N(c2cccc(F)c2)CC12CCN(CC1CCOCC1)C2.O=C(O)C(F)(F)F.O=C(O)C(F)(F)F` (configuration not stated) | -6.567 | 4.718 |
| 23 | `Clc1ccc(C2(NCc3noc(C4CC4)n3)CCC2)cc1` | 43.03 | 48.23 |
| 24 | `CC(=O)Nc1sc2c(c1C(=O)O)CCc1ccccc1-2` | -8.093 | -28.82 |
| 25 | `CCCN1CCc2nc(SCc3ccccc3F)[nH]c(=O)c2C1` | -13.72 | 0.9963 & -15 |
| 26 | `CC(C)(CNc1ccc2ccc(F)cc2n1)NS(C)(=O)=O` | 2.137 | 8.872 |
| 27 | `Cc1nn(C)c(C)c1NC(=O)CN1CCc2c(nc(C(C)C)n2C)C1` | 12.19 | -9.92 |
| 28 | `O=C(O)C(F)(F)F.[H][C@@]12CCN(c3cccnc3)C[C@]1([H])CN(C(=O)c1cccn1C)C2` | -9.278 | -11.22 |
| 29 | `O=C1CCCN1Cc1ncn2c1CN(C(=O)C1CC=CC1)CCC2` | 12.14 | 8.359 |
| 30 | `Cc1cnn(CC(C)NCC(=O)NC2CCOCC2)c1` (configuration not stated) | 2.017 | 3.657 |
| 31 | `COCCC(=O)N1CCC2(CC1)CC(c1ccccc1)CN(C1CC1)C2` (configuration not stated) | 7.913 | -26.86 |
| 32 | `CN1CCCC(c2cccc(-c3cccc(C(F)(F)F)c3)n2)C1` (configuration not stated) | 54.47 | 64.12 |
| 33 | `O=C(O)C(F)(F)F.[H][C@@]12CCN(S(=O)(=O)C3CC3)[C@@]1([H])CCN2C(=O)c1ccncc1` | -2.855 | -0.02672 & 21.77 |
| 34 | `CC(CN1CCC2(CC1)N=C(c1cccnc1)NC2=O)c1ccccc1` (configuration not stated) | 4.461 | 9.982 |
| 35 | `CC(C)c1nccn1C(C)C(=O)NC1CCOCC1` (configuration not stated) | -3.378 | 13.28 |
| 36 | `[H][C@]12CC[C@]([H])(CC(=O)N(CC(=O)N(C)CCCOc3ccccc3Cl)C1)N2` | 10.57 | 9.07 |
| 37 | `Cc1cc(C)c(CNC(=O)N2CCC(N3CCNC3=O)CC2)c(C)c1` | 4.825 & 7.588 | -24.38 |
| 38 | `CC(C)(C)c1cnc(CN2CCCC2Cn2cccn2)o1` (configuration not stated) | -8.832 | -3.135 |
| 39 | `c1cnn(CCC2CCN(Cc3ccc4[nH]ccc4c3)CC2)c1` | -6.781 & 10.58 | 2.153 |
| 40 | `Cc1ccc(OCC(=O)Nc2cnccc2SCCCO)cc1C` | -0.2939 | 4.424 & -18.43 |
| 41 | `CC(c1cccnc1)N(C)S(C)(=O)=O` (configuration not stated) | -18.74 | -8.722 |
| 42 | `CCn1ccnc1CN1CCCN(C(=O)Cn2nc(C)cc2C)CC1` | 4.494 | -13.52 |
| 43 | `Cc1cnn(CCNCc2ccccc2OCc2ccncc2)c1` | -13.46 | 14.9 |
| 44 | `O=C(NCCCc1ccc(O)cc1)C1(O)Cc2ccccc2C1` | 22.43 & 4.532 | 30.55 |
| 45 | `Cc1cnc(C(=O)N2CCCCC2c2ccc(CN(C)C)cc2)cn1` (configuration not stated) | -42.98 | -23.01 |
| 46 | `O=C(O)C(F)(F)F.O=S1(=O)NCC2(CCN(c3ncccn3)CC2)COc2ccccc21` | -17.05 | -9.562 & -49.24 |
| 47 | `[H][C@@]12C[C@@H](O)CN1C[C@H](Cc1ccccc1)N(Cc1cnc(CC)nc1)C2` | -1.173 & -3.335 | -3.135 |
| 48 | `c1ccc(-n2ccc(CN3CCCCC3Cn3cncn3)n2)cc1` (configuration not stated) | 14.67 | 9.16 |
| 49 | `CN1CCN(Cc2cn3c(n2)CN(Cc2ccc(F)cc2)CC3)CC1.O=C(O)C(F)(F)F.O=C(O)C(F)(F)F.O=C(O)C(F)(F)F` | -12.7 | -8.279 |
| 50 | `NC(=O)NCC1CCCCN1C(=O)c1cc(F)cc(F)c1` (configuration not stated) | -3.518 | -13.49 |
| 51 | `CCOCC1CN(C(=O)c2ccoc2)Cc2cnn(C)c21` (configuration not stated) | -31.47 | -37.41 |
| 52 | `CNS(=O)(=O)CC(=O)N1CCC(c2cc3ccccc3[nH]2)CC1` | 16.52 | 3.831 |
| 53 | `CSc1ccsc1C(=O)NC(Cc1ccccc1)C(N)=O` (configuration not stated) | -10.2 | -14.66 & 0.8732 |
| 54 | `O=C(NCCC(=O)N1CCCc2ccccc21)c1ccc(F)cc1F` | 3.181 | -13.49 |
| 55 | `Cc1nc2c(c(C)c1CC(=O)Nc1cccc(C#N)c1)c(=O)[nH]n2C` | -10.82 | -15.37 |
| 56 | `Cc1ccc(CN2CCc3nnc(CN4CCCC4=O)n3CC2)s1.O=C(O)C(F)(F)F` | 0.4896 | 5.113 |
| 57 | `CN1CCC2(COCc3cnc(-c4ccccc4)nc32)C1.O=C(O)C(F)(F)F` (configuration not stated) | -35.53 | 2.151 & -24.9 |
| 58 | `CCOC(C)C(=O)NCCNS(C)(=O)=O` (configuration not stated) | 1.181 | 19.34 |
| 59 | `O=C(c1nn[nH]c1Nc1ccc(Cl)cc1)N1CCCCCC1` | 19.84 | 21.85 |
| 60 | `CCc1cnc(C)nc1NCCc1nc(N)cc(O)n1` | 0.05789 & -4.836 | -11.45 |
| 61 | `CCOCC(O)CN1CCN(C(=O)c2ccc3c(c2)COC3)CC1` (configuration not stated) | -29.11 | -49.8 |
| 62 | `Cn1nc2c(c1NC(=O)c1ccc(Cl)s1)CCC2` | 21.53 | 47.15 |
| 63 | `c1ccc(Cc2noc(CN3CCCC3C3CCCCC3)n2)cc1` (configuration not stated) | -19.81 | -3.988 |
| 64 | `COCC(=O)N1CCC2(CC1)CNc1ccc(F)cc12.O=C(O)C(F)(F)F` | 4.327 | -1.123 & -5.551 |
| 65 | `O=C(c1cc(-c2cccs2)cs1)N1CCOCC1` | 23.3 | 31.8 |
| 66 | `CCc1nnsc1C(=O)N1CCCN(Cc2nccn2C)CC1` | -2.903 | 8.459 |
| 67 | `Cc1cccc(C(=O)N2CCCCC2c2ccc(CN(C)C)cc2)c1` (configuration not stated) | 9.773 | 18.7 |
| 68 | `CCOC1COC2(CCN(Cc3cccnc3OC)CC2)C1.O=C(O)C(F)(F)F.O=C(O)C(F)(F)F` (configuration not stated) | -7.068 | -28.44 |
| 69 | `CC(NCCn1cccn1)c1cc(F)ccc1F` (configuration not stated) | 6.15 | -12.99 |
| 70 | `[H][C@@]12CS(=O)(=O)C[C@]1([H])N(CC(=O)N(C)C)CCN2c1ncccn1` | -27.94 | -3.309 |
| 71 | `FC(F)(F)c1csc(N2CCN(Cc3ccccn3)CC2)n1` | 0.3412 | 25.59 |
| 72 | `O=C(O)C(F)(F)F.[H][C@@]12CN(C(=O)Cc3ccsc3)C[C@]1([H])OCCN2c1cnccn1` | 26.3 | -26.37 & -8.176 |
| 73 | `O=C(O)C(F)(F)F.[H][C@]12CCN(Cc3c(C)noc3C)[C@@]1([H])CC[C@@H](COCC1CC1)O2` | 1.241 | -8.752 & -10.48 |
| 74 | `CN(Cc1nnc(C2CC2)o1)CC1CCCN1c1cccnn1` (configuration not stated) | -20.98 | -20.3 |
| 75 | `CCc1cnc(CNC(=O)N2CCCC(C(=O)NC)C2)s1` (configuration not stated) | -9.07 | -1.234 & 12.55 |
| 76 | `O=C(NCCc1ccc(Cl)s1)NCc1nnc2n1CCCC2` | -13.16 | -10.48 |
| 77 | `CSc1nsc(SCC(=O)c2cc3c(cc2Cl)NC(=O)C3)n1` | -10.17 | 14.64 |
| 78 | `CCC(=O)N1CCC(c2cncc(Oc3cccnc3)n2)CC1` | 10.58 | 3.585 |
| 79 | `O=C1C(NCc2nnc3n2CCCC3)CCCN1c1cccc(F)c1` (configuration not stated) | -21.38 | -47.13 |
| 80 | `CC(C)c1nc(CN(C)C(=O)C2CC(=O)N(Cc3ccncc3)C2)cs1` (configuration not stated) | -10.67 | -19.39 & -11.01 |
| 81 | `CCOc1ccc(C(=O)N2CCCCC2Cn2nc(C)cc2C)cn1` (configuration not stated) | -9.199 | -11.72 |
| 82 | `CC(C)C(c1cccnc1)N(C)C(=O)Cc1c(F)cccc1F` (configuration not stated) | 8.049 | 9.281 |
| 83 | `CC(C)(C)OCC1CN(CC2CC2)S(=O)(=O)c2cnccc2O1` (configuration not stated) | -3.237 | 12.9 |
| 84 | `Cc1cc(C)n(C2CCCN(C(=O)c3ccc4c(c3)COC4)C2)n1` (configuration not stated) | 1.761 | -20.2 |

For reference, 10 entries once more:

structure,A,B
CC(C)c1nc(CN(C)C(=O)C2CC(=O)N(Cc3ccncc3)C2)cs1 (configuration not stated),-10.67,-19.39 & -11.01
CCc1cnc(C)nc1NCCc1nc(N)cc(O)n1,0.05789 & -4.836,-11.45
OCCN1CCCC(c2nccnc2Oc2ccc(F)cc2)C1 (configuration not stated),-9.414,24.9
O=C(O)C(F)(F)F.[H][C@@]12CN(C(=O)Cc3ccsc3)C[C@]1([H])OCCN2c1cnccn1,26.3,-26.37 & -8.176
CC(C)n1[nH]c(=O)c2c1NC(=O)CC2c1cccc(O)c1 (configuration not stated),-28.39,-19.23
c1cnn(CCC2CCN(Cc3ccc4[nH]ccc4c3)CC2)c1,-6.781 & 10.58,2.153
O=C(NCCc1ccc(Cl)s1)NCc1nnc2n1CCCC2,-13.16,-10.48
O=C1C(NCc2nnc3n2CCCC3)CCCN1c1cccc(F)c1 (configuration not stated),-21.38,-47.13
NC(=O)NCC1CCCCN1C(=O)c1cc(F)cc(F)c1 (configuration not stated),-3.518,-13.49
Cn1nc2c(c1NC(=O)c1ccc(Cl)s1)CCC2,21.53,47.15